Data from patent US20030232360.

Amino acid sequences for entries named in this document (tags omitted). Residues count along the entry.
UniProt Q15717, 2-326: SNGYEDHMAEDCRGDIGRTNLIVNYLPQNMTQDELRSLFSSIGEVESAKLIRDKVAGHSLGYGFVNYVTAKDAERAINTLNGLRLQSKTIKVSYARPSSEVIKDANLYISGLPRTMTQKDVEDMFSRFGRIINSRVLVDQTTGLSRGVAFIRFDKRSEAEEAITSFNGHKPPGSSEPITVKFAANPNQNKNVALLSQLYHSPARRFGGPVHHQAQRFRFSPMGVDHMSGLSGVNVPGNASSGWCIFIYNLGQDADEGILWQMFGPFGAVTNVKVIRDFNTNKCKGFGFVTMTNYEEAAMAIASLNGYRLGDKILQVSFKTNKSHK

Molecular target: HuR (HuA, ELAV family), endogenous in HeLa S100 (UniProt Q15717)
Assay: competition with a labelled probe
Conditions: non-specific competitor; competition described as specific to ARE RNA; protein in an extract

Question: Does “GUCACGUGUCACC [Non-specific competitor RNA]” bind?
Answer: Result: no binding

Where cells or extracts were used, other partners may take part. Negatives hold for the conditions tested.
